PubChem BioAssay AID602196 – INSERM | 2012

Purpose: 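Genes whose knock-down alters cisplatin killing of lung cancer cells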
Cell system: human A549 lung cancer cells
Reagent: siRNA pair against human genes
Duration: 48 h transfection before cisplatin; time from cisplatin to read-out not stated
Treatment: cisplatin at a dose killing half of control-siRNA cells; exact dose and duration not given
Read-out: 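Shift in cisplatin death relative to control siRNA, from -50 (all cells die) to +50 (no cells die); siRNAs harmful on their own scored 0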
Reading the numbers: two-siRNA summed score (-2 to +2): higher = both siRNAs protect from cisplatin killing; -2 means both sensitise
Hit rule: 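siRNAs harmful alone (LDH or WST-1) get 0; others get +1 for less and -1 for more cisplatin killing; genes are active when the two siRNAs give the same sign, summing to ±2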
Calls: active = both siRNAs shift cisplatin killing the same way; inactive = no consistent shift, or siRNA harmful alone
In all, the deposit lists about 23,000 reagents; shown is a part drawn at random. In the full data, 455 (2%) got an active call. 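Active includes both protection and sensitisation; some change values fall well beyond the stated -50 to +50 range.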 Entries without a mark were called inactive. The numbers tell different reagents against one gene apart. Further read-outs or replicates are left out here. Reagent sequences are not shown. Not given: the amount of reagent.

two-siRNA summed score (-2 to +2), by target and reagent
GLT1D1: #1 0
UGGT2: #1 -1
TM9SF1: #1 0
CCNG2: #1 0
SERPINA3: #1 -1
SPDL1: #1 0
BANF1: #1 -1
THOC3: #1 0
CTAG1B: #1 0
GPR183: #1 1
DNAJC18: #1 2 (active)
PSMD9: #1 0
SUOX: #1 0
LOC388969: #1 0
LOC390349: #1 0
TMEM129: #1 0
LINC00880: #1 0
SPAM1: #1 0
ATP2B2: #1 1
ACE2: #1 0
LOC442616: #1 0
NBEAL1: #1 0; #2 0
ITGAM: #1 0
LOC440554: #1 0
LOC401322: #1 1
TBC1D3F: #1 0
LOC441015: #1 0
LOC442011: #1 1
GNG5: #1 0
CDO1: #1 0
LOC392549: #1 1
LOC441821: #1 0
LOC442065: #1 0
TPH1: #1 1
LOC389844: #1 0
ETS2: #1 1
LOC400649: #1 0
PROZ: #1 -1
PAX7: #1 0
SAT1: #1 -1
LOC442624: #1 0
EVA1B: #1 0
CP: #1 0
ATXN3: #1 0
NR3C1: #1 0
LOC131572: #1 -1
LOC401855: #1 0
UMODL1-AS1: #1 0
LINC00636: #1 1
LOC342900: #1 1
RNF170: #1 0
LOC441355: #1 0
FLJ39609: #1 1
SCAND2P: #1 0
LOC401210: #1 1
DGUOK: #1 0
LOC149913: #1 0
GSS: #1 -1
CAPN12: #1 0
TLX3: #1 0
LMLN: #1 0
NAIF1: #1 1
PRELP: #1 0
LINC01104: #1 0
HOXC8: #1 0
MAP2K5: #1 0
PTGER1: #1 0
KLHL27: #1 0
TOMM20: #1 0
HOXB4: #1 0
PIGN: #1 -1
LOC441303: #1 0

4 of these entries, set out differently:
target,reagent no.,two-siRNA summed score (-2 to +2)
LINC01104,1,0
HOXC8,1,0
MAP2K5,1,0
PTGER1,1,0
